# Data from the supplement of paper PMC12067093, “Discovery and optimisation of a covalent ligand for TRIM25 and its application to targeted protein ubiquitination” (Chemical Science, 2025).
# Chains of the proteins cited; added tags and fusions are not shown. Lines headed by an entry give the natural chain unless they say otherwise; changes in a name come on top.
# UniProt O60449: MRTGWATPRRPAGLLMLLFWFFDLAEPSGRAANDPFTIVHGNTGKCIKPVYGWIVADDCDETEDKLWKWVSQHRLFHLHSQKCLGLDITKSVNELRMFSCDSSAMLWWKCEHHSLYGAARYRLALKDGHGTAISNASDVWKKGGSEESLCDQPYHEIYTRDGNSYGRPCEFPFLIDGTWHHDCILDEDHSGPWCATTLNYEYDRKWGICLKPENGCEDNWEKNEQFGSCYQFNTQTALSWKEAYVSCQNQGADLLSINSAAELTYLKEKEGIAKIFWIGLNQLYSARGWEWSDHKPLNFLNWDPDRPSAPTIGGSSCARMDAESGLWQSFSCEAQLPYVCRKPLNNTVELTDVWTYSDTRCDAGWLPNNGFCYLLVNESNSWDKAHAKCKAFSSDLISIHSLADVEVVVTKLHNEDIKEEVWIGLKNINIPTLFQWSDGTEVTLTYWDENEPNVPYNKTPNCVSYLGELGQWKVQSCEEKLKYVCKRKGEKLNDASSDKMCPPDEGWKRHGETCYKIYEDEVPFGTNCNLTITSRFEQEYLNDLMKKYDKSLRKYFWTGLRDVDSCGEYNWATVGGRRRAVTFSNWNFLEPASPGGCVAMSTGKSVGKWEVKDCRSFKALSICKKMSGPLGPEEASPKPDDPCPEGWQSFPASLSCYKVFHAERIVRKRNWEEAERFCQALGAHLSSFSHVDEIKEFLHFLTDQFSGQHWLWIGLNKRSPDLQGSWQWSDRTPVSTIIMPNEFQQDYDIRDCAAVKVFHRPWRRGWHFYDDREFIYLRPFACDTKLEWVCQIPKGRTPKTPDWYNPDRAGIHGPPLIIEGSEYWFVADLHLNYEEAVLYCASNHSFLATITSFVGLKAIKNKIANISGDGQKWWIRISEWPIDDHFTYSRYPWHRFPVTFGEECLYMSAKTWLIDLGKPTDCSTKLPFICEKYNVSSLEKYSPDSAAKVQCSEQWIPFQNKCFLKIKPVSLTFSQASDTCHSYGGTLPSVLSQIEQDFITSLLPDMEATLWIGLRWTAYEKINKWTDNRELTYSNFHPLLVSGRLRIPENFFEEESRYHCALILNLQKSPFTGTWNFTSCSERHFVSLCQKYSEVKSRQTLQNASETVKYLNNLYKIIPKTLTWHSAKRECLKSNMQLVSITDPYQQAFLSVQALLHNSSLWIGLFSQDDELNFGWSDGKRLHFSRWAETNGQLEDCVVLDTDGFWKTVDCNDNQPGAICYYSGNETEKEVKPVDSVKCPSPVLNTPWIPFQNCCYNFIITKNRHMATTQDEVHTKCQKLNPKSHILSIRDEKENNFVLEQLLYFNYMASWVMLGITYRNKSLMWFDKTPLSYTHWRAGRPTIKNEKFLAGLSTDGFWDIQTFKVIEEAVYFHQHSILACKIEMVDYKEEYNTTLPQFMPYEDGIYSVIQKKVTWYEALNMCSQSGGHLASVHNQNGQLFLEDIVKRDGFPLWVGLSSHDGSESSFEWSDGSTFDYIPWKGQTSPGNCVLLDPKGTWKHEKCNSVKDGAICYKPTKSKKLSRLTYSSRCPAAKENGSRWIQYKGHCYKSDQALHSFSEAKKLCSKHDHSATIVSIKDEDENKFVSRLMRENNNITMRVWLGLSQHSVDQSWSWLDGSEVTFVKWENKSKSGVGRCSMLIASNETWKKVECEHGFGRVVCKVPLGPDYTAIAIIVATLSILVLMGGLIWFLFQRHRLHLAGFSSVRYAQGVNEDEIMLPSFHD
# UniProt O94822: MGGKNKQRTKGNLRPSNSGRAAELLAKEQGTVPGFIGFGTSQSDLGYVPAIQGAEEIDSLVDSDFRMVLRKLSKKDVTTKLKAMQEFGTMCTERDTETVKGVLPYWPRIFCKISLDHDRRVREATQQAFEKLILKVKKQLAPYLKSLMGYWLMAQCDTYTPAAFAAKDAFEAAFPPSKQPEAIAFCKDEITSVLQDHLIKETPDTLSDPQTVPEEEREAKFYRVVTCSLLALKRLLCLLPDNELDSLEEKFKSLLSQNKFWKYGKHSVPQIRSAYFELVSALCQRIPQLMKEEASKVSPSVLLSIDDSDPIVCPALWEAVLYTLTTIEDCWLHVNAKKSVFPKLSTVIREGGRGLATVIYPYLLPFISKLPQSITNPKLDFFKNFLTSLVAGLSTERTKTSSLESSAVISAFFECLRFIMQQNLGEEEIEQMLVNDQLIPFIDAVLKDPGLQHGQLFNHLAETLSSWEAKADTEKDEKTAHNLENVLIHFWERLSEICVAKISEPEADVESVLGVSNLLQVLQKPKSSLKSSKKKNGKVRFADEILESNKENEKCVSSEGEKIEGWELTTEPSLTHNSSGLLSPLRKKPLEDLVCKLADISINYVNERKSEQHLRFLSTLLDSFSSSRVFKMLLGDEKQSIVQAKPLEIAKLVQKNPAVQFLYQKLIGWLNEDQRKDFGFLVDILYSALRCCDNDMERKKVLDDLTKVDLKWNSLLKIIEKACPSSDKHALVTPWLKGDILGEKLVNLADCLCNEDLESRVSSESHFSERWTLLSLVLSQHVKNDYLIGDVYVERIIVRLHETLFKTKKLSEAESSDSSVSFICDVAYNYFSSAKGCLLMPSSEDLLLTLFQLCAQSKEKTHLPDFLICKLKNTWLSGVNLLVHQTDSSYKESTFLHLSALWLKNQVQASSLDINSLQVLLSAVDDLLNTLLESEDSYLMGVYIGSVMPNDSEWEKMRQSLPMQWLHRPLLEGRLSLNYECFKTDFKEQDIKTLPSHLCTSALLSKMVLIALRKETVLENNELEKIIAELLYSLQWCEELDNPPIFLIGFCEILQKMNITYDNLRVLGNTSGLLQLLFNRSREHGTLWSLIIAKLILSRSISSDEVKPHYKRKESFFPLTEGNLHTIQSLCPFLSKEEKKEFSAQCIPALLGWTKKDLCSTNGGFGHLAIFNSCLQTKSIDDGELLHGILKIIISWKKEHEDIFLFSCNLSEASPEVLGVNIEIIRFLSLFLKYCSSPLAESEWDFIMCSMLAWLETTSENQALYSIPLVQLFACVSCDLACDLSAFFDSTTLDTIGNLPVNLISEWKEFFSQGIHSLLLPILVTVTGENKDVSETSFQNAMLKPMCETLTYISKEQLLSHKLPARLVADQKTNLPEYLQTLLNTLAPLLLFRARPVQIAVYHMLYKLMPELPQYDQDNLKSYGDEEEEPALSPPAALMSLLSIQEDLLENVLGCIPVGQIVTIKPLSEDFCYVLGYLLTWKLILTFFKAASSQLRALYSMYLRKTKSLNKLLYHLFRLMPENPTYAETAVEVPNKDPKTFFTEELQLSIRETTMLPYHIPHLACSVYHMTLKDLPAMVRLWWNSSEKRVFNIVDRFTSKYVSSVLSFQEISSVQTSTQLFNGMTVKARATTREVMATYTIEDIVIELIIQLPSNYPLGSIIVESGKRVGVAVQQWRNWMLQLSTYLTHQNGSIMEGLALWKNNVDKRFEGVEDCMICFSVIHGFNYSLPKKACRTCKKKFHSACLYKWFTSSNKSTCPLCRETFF
# UniProt P28482, whole entry, looked up: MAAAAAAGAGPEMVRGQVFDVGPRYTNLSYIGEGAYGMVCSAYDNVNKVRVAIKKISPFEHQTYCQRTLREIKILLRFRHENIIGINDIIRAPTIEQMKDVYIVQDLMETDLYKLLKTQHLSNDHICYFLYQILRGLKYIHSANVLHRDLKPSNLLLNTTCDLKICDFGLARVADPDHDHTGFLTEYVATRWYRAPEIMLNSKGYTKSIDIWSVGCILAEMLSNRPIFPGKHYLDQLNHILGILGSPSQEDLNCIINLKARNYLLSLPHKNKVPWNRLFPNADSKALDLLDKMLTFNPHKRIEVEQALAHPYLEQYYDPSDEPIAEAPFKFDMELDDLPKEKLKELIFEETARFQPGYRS
# UniProt O95232: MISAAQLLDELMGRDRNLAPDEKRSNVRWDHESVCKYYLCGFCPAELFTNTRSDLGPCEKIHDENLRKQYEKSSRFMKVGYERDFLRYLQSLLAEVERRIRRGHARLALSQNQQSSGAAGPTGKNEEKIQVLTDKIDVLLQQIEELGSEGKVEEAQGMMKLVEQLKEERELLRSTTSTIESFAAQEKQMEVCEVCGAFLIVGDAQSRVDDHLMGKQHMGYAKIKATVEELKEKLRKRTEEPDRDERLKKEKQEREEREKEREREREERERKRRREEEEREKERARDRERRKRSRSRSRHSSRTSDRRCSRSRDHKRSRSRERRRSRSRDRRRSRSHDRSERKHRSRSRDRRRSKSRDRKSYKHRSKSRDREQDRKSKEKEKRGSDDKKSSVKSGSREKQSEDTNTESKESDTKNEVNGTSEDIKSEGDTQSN
# UniProt P43243: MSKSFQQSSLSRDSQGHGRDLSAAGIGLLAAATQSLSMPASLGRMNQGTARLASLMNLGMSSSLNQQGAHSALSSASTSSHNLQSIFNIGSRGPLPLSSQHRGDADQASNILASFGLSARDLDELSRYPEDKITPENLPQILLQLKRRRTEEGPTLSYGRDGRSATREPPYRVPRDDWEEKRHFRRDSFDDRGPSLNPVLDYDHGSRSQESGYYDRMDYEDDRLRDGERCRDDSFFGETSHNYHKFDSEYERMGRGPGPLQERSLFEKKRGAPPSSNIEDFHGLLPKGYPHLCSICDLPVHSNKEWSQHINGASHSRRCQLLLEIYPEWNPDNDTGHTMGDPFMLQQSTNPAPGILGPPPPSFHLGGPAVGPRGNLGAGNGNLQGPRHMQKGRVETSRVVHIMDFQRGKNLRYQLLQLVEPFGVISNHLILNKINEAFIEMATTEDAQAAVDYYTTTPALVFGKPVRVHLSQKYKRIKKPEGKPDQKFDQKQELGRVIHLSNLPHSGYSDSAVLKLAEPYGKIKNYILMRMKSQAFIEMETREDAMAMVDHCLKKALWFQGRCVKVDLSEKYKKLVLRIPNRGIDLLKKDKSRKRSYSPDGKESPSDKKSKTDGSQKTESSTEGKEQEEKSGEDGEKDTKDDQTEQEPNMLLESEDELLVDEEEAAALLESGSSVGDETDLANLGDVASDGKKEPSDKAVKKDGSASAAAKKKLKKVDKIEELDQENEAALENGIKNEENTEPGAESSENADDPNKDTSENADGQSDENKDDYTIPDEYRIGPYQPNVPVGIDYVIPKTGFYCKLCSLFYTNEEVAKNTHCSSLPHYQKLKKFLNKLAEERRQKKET
# UniProt P53778: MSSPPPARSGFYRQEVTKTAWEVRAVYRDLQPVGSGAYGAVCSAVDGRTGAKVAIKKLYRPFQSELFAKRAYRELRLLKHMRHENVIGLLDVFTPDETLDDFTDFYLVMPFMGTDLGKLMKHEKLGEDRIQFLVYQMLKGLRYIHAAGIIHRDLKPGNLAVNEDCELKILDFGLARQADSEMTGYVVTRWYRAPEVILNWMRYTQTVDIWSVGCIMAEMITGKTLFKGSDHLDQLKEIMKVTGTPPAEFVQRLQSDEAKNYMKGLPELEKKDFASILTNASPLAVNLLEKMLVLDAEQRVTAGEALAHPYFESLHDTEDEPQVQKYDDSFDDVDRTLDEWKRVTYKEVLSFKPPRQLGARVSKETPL
# UniProt P52564: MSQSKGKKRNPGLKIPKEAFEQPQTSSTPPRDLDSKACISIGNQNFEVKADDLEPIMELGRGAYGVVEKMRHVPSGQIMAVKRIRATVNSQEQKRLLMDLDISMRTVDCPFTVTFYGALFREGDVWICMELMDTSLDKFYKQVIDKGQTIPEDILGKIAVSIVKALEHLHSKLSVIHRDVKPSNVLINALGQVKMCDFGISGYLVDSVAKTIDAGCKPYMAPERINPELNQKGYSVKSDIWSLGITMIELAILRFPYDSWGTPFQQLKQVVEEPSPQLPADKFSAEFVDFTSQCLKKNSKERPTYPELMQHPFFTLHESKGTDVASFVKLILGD
# UniProt Q9NQ29: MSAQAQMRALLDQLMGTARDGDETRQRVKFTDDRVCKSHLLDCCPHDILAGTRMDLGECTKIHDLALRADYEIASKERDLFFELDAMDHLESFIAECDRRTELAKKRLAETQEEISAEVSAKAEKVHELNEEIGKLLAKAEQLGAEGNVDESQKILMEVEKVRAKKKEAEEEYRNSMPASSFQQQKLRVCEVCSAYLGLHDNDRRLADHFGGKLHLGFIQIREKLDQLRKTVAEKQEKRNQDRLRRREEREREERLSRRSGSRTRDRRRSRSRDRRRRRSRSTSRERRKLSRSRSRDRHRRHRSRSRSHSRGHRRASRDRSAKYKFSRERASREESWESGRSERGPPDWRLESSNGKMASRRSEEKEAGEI
# Some of the results follow.
# Compound: CC1Cc2ccccc2N1C(=O)C1CCCN(C1)C(=O)CCl (mixture of isomers) [TRIM25 ligand 11 (diastereomer mixture)]
# Experiment: probe-labelled cysteine peptide fold change vs DMSO (competition) (log2 fold change); higher = less target engagement (more negative = stronger competition)
# Details: 10 µM; THP-1; incubation time: 4 h
# 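Further: competitive chemoproteomic profiling in live THP-1 cells with an iodoacetamide desthiobiotin (IA-DTB) probe, comparing probe-labelled peptide intensities in compound-treated cells against DMSO-treated controls.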
row,Target,probe-labelled cysteine peptide fold change
1,MARCH3_Q86UD3_89_ICHEGSSQEDLLSPCECTGTLGTIHR (UniProt Q86UD3),0.253
2,LY75_O60449_1380_VIEEAVYFHQHSILACK (UniProt O60449),0.366
3,MAPK9_P45984_177_TACTNFMMTPYVVTR (UniProt P45984),-0.23
4,MAP3K1_Q13233_488_NREPLICPLCR (UniProt Q13233),0.185
5,MAP10_Q9P2G4_256_AECDNVGSVENGK (UniProt Q9P2G4),0.0362
6,MAP3K5_Q99683_391_ALDIMIPMVQSEGQVASDMYCLVGR (UniProt Q99683),0.187
7,LY75_O60449_150_KGGSEESLCDQPYHEIYTR (UniProt O60449),0.0216
8,MACF1_Q9UPN3_4581_QLEESASHLACFQAAESQLRPWLMEK (UniProt Q9UPN3),-0.0945
9,MAP1S_Q66K74_435+440_VLFPGCTPPACLLDGLVR (UniProt Q66K74),-0.121
10,MACF1_Q9UPN3_6075_ILGADLIFACGETEKPEVR (UniProt Q9UPN3),0.101
11,MACF1_Q9UPN3_892_NDECVLEDNSQR (UniProt Q9UPN3),0.106
12,LYRM7_Q5U5X0_97_DLLVENVPYCDAPTQK (UniProt Q5U5X0),-0.0529
13,MAN2B1_O00754_268+273_NLCWDVLCVDQPLVEDPR (UniProt O00754),-0.215
14,LTN1_O94822_1745_KFHSACLYK (UniProt O94822),-0.113
15,MAU2_Q9Y6X3_145_AIQISQQTPYWHCR (UniProt Q9Y6X3),-0.167
16,MAP3K8_P41279_398_CQSLDSALLER (UniProt P41279),-0.18
17,MALT1_Q9UDY8_667_HCLYTR (UniProt Q9UDY8),0.019
18,MAPK1_P28482_254_HYLDQLNHILGILGSPSQEDLNCIINLK (UniProt P28482),0.0567
19,MBD4_O95243_549_IFCVNEWK (UniProt O95243),0.0136
20,LUC7L3_O95232_40_YYLCGFCPAELFTNTR (UniProt O95232),0.0328

row,Target,probe-labelled cysteine peptide fold change
1,LYAR_Q9NX58_36_NCECLSCIDCGK (UniProt Q9NX58),-0.0649
2,LYST_Q99698_1855_VHELENCNGLSMIHQVLIK (UniProt Q99698),0.0231
3,MAP3K4_Q9Y6R4-2_1157_CHSDPPNPHLIIPTPEGFR (UniProt Q9Y6R4),-0.126
4,MATR3_P43243_821_NTHCSSLPHYQK (UniProt P43243),0.121
5,MAPK12_P53778_42_DLQPVGSGAYGAVCSAVDGR (UniProt P53778),0.00717
6,LTN1_O94822_237_LLCLLPDNELDSLEEK (UniProt O94822),0.166
7,LYST_Q99698_3701_LWTVNGDLVGHVHCR (UniProt Q99698),0.0831
8,MAP2K6_P52564_216_TIDAGCK (UniProt P52564),0.111
9,LY75_O60449-2_1697_NQCTDHGADMISIHNEEENAFILDTLK (UniProt O60449),0.27
10,LYAR_Q9NX58_33_NCECLSCIDCGK (UniProt Q9NX58),-0.0571
11,MACF1_Q9UPN3_3619_QQNTCHQQLEDLCSWVGQAER (UniProt Q9UPN3),-0.474
12,LYPLAL1_Q5VWZ2_174_SNGVLPELFQCHGTADELVLHSWAEETNSMLK (UniProt Q5VWZ2),0.366
13,MACF1_Q9UPN3_3368_QLCLEHDEK (UniProt Q9UPN3),0.0306
14,LUC7L_Q9NQ29_97_ERDLFFELDAMDHLESFIAECDR (UniProt Q9NQ29),-0.137
15,MAP4K2_Q12851_302_ASDPHLGTPSPEDCELETYDMFPDTIHSR (UniProt Q12851),-0.0289
16,MATR3_P43243_552_EDAMAMVDHCLKK (UniProt P43243),-0.14
17,MACF1_Q9UPN3_5116_VNSGCVMMENK (UniProt Q9UPN3),0.0171
18,MAT2A_P31153_34_ICDQISDAVLDAHLQQDPDAK (UniProt P31153),0.0179
19,MAN1A2_O60476_462_MGHLACFAGGMFALGADGSR (UniProt O60476),-0.0933
20,LYST_Q99698_3649_LCYVQSLAGHK (UniProt Q99698),0.0365

# Two entries from above, with tabs.
row	Target	probe-labelled cysteine peptide fold change
16	MATR3_P43243_552_EDAMAMVDHCLKK (UniProt P43243)	-0.14
17	MACF1_Q9UPN3_5116_VNSGCVMMENK (UniProt Q9UPN3)	0.0171
